# Patent US20100249184A1, “INDUCTION AND/OR MAINTENANCE OF TUMOR DORMANCY BY DISRUPTION OF UROKINASE PLASMINOGEN ACTIVATOR RECEPTOR-INTEGRIN INTERACTION” (MOUNT SINAI SCHOOL OF MEDICINE, priority 2007, published 2010)
# These are yes or no findings as the source states them, for the method shown. Binding calls can cover weak binding; strength is not graded here.
# Biological target: purified human α5β1-integrin (human)
# Assay: solid-phase dot-ELISA, peptide immobilized
binder,measurement,value
GAATASMAQ [synthetic peptide 240-248 with both cysteines replaced by alanines],binding,binds
